## Screening data, single-dose tests

Amino acid sequences for entries named in this document (tags omitted).
UniProt P9WPC5, whole entry: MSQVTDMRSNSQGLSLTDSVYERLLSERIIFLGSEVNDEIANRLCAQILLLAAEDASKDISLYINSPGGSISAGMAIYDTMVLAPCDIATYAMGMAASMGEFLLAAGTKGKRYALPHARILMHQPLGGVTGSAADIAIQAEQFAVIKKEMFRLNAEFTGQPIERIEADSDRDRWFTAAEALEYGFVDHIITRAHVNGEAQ
UniProt P9WPC3, whole entry partner: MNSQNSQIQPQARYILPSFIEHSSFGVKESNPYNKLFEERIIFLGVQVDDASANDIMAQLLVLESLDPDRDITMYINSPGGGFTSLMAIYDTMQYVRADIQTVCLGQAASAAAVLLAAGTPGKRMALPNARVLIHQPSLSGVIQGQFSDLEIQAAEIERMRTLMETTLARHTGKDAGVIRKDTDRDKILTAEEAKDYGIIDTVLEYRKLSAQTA

The values are deposited in ChEMBL (CHEMBL3988442, “University of Dundee, Small-Polar-MMV Screening Library” (2021)).

A: 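Assay of Toxoplasma gondii numbers, read through their beta-galactosidase reporter with a colour substrate. Concentration: 10 µM. Higher reads as fewer parasites (inferred from which compounds were picked for retests). Size under these conditions: about 67,000 compounds, about 260 of them at 50% or above in at least one test.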
B: 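Protease assay of ClpP1P2, read by the AMC dye that it sets free. Target: ClpP1P2, Mycobacterium tuberculosis (UniProt P9WPC5 and UniProt P9WPC3). Concentration: 50 µM. Direction is inferred from only a few compounds that gave an IC50; most scored high, so higher reads as stronger inhibition. Most other retested compounds had strongly negative values. Size under these conditions: about 69,000 compounds, about 10 of them at 50% or above in at least one test.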

Values are the deposited “Percent Effect”, in %. The controls that fix the scale are not given in the record; negative values are as filed. Compounds were drawn at random from those tested, without regard to their results.

For O=C(O)C(F)(F)F.[H][C@@]12COC[C@@H](C(=O)N3CCCCO3)[C@]1([H])CN(Cc1c(C)noc1C)C2 the result was A: -48.18%. CN(C)[C@@H]1CN(Cc2cnn(C)c2)[C@@H]2COC[C@H]12 read B: 20.22%. CCOc1ncnc2c1CCN(C(=O)NCc1cccnc1)CC2.O=C(O)C(F)(F)F read A: 6.986%. With COc1ccc(-c2cnc(CN3CCCC3CO)o2)cc1 (centres unmarked) the screen gave A: 0.767%; B: -12.38%.

CN(Cc1ccccc1F)C(=O)c1cc(Cl)c[nH]1 gave B: 13.36%. COCC(NC(=O)c1cc[nH]n1)c1cccc(C(F)(F)F)c1 (centres unmarked) read A: 1.314%; B: -3.752%. For Cc1cccnc1NCCNC(=O)C1CCN(C(=O)N(C)C)CC1 the result was A: -12.07%; B: 2.826%. Result for CCC[C@H]1CN(Cc2cc(C#N)n(C)c2C)C[C@@H]1NS(=O)(=O)CC was A: 6.134%; B: 0.9599%.

For CNC(=O)NCC1CCC2(CCN(C(=O)c3cccnc3)CC2)CO1 (centres unmarked) the result was B: 0.2429%. CCNc1ncc(-c2cc(-c3ccn(C)c3)nc(N)c2C#N)cn1 gave A: -0.4284%; B: -20.35%. Result for Cc1nc(N2CCOCC2)nc2c1CCN(Cc1ccsc1)CC2 was B: -6.76%. Result for CCc1nc(C)c(CN2CCOC(Cc3ccccc3Cl)C2)[nH]1 (centres unmarked) was A: -1.948%; B: -18.68%.

Cc1cc(=O)n2ncnc2n1CC(O)c1cc(Cl)ccc1Cl (centres unmarked) read A: 22.72%; B: -16.58%. For COCCC(=O)N1CCCC(c2noc3nc(C)cc(C(F)(F)F)c23)C1 (centres unmarked) the result was A: -35.46%; B: -5.688%. Cc1ccc(CN2Cc3cnn(C)c3C(COCC3CC3)C2)o1 (centres unmarked) read A: -19.37%; B: -14.28%. CCN(C)c1ncnc2c1CCN(S(=O)(=O)c1ccccc1)CC2.O=C(O)C(F)(F)F read A: -5.89%.

For [H][C@]12CNC[C@@]1(C(=O)NCCSC(C)(C)C)CN(S(C)(=O)=O)C2 the result was A: 5.014%. With CNC(=O)c1ccc(C(=O)N2CCCC(n3ccnc3)C2)cn1 (centres unmarked) the screen gave A: -3.048%; B: -0.9332%. Result for COc1ccc2c(c1)C1(CCN(Cc3ccoc3)CC1)N(C)CC2 was A: 5.432%; B: -14.51%. With CCN(C(=O)Cn1cc(Cl)cn1)c1ccccc1 the screen gave A: -4.819%; B: 11.84%.

COc1ccc(C(C)N2CCC(C(=O)N(C)C)CC2)cc1Cl (centres unmarked) gave A: -0.9073%; B: 6.677%. c1cncc(CN2CCC(NCCc3ccc4c(c3)OCO4)CC2)c1 gave A: -0.9029%; B: 4.338%. CCOc1ccnc(N2CCN(C(=O)CCc3ccsc3)CC2)n1 gave A: 1.834%; B: -10.11%. Cc1ccc(C(=O)N2C[C@@H]3OCCN(CCN4CCCC4)[C@@H]3C2)cn1 gave B: 2.347%.

For [H][C@@]12CCCO[C@]1([H])[C@H](OCc1cccnc1)CN2C(=O)c1ccnnc1 the result was A: 10.93%. Cl.O=C1CC2(CCCNC2)C(=O)N1Cc1cccc(F)c1 (centres unmarked) read A: 21.26%. CNCc1cn(CC2CCN(Cc3cccs3)CC2)nn1 gave A: -22.9%; B: -24.22%. For [H][C@@]12CCN(Cc3ccco3)C[C@@]1([H])O[C@H](c1ccnc(C(C)C)n1)C2 the result was A: -7.313%.

O=C1CSC(c2ccsc2)c2sccc2N1 (centres unmarked) gave A: -6.575%; B: 8.046%. For COC(=O)NCc1cc2n(n1)CCCN(C(C)=O)C2 the result was A: -2.757%; B: -10.71%. With COc1ccc(C2CCN(CCCC#N)CC2)cc1 the screen gave A: -41.64%; B: -7.911%. CC(C)N1CCC(Nc2ccn(Cc3ccccn3)n2)C1=O (centres unmarked) gave A: -1.352%; B: -17.53%.

O=C1NC(c2ccccc2)=N[C@@]12CC[C@@H]1CN(Cc3ccoc3)C[C@@H]12 read B: -11.09%. Result for O=C(CCN1CCCC1c1cccc2c1OCCO2)N1CCCCC1 (centres unmarked) was A: 8.023%; B: 4.086%. With Cc1n[nH]c(C2CN(C(=O)c3cc(Cl)c[nH]3)CCO2)n1 (centres unmarked) the screen gave A: -0.4525%; B: 1.422%. With CN(c1ncnc2c1cnn2C)C1CCCN(c2cccnn2)C1 (centres unmarked) the screen gave A: -9.622%; B: -6.29%.

Result for CCOC1CCN(C(=O)c2cc(-c3ccc(Cl)cc3)on2)CC1 was A: 2.245%; B: -13.47%. For COCC1CC2(CCN(C(=O)c3ccc(OC)c(Cl)c3)CC2)CO1 (centres unmarked) the result was A: -1.441%; B: 4.446%. With Cc1nc(C)n(CC2CN(Cc3noc(C4CC4)n3)CCO2)n1 (centres unmarked) the screen gave A: -9.186%; B: -21.35%. Result for Cc1cc(-c2cnn(CCNC(=O)c3cc[nH]n3)c2C2CC2)on1 was A: 12.38%; B: 14.49%.